From patent US20190390199 come the findings set out here.

Where a protein sequence is shown, tags need not be part of it.

The data set concerns the target T1, TLR9 (Toll-like receptor 9) (Homo sapiens) (UniProt Q9NR96).
T1 sequence (looked up, limits assumed): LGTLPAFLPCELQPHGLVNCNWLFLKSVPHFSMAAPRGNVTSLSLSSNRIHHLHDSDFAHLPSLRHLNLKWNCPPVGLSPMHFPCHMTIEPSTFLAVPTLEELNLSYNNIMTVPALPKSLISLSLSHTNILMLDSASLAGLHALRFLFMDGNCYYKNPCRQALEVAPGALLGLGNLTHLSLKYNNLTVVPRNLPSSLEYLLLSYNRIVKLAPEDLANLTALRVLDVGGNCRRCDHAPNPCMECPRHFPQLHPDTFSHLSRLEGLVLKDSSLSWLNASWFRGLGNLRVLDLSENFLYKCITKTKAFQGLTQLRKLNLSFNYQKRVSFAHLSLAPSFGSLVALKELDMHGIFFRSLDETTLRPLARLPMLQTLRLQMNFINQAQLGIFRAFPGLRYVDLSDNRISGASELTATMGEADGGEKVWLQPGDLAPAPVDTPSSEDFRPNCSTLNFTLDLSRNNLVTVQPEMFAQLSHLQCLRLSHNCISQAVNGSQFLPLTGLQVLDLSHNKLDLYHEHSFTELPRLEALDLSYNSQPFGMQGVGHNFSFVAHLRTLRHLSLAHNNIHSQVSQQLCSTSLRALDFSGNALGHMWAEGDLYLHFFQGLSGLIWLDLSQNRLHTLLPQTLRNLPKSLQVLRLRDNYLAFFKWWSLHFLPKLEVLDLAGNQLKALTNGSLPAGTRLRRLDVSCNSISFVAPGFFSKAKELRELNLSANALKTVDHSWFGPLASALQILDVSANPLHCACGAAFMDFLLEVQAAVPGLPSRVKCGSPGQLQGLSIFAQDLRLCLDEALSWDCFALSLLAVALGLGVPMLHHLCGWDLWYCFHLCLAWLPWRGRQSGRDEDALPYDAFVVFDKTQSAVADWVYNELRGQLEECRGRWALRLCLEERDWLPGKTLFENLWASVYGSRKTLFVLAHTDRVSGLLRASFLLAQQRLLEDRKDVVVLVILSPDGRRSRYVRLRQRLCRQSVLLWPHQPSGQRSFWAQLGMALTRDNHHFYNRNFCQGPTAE
Put plainly: activity in cells. The following applies: functional readout only; agonist used at 300 ng/ml (38.86 nM) to activate the TLR9 reporter; protein in cells; single-stranded DNA.

As for “TCGTCGTTTTGTCGTTTTGTCGTT [ODN 2006 (TLR9 agonist)]”, the functional effect entry is given as “active”.
